Measured values as given in PubChem BioAssay AID1347426 (Functional Genomics Laboratory (NCATS/FGL), 2020).
Among all 31,000 sequences or so, about 1,400 (4.5%) were called active.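 How the source made its calls: active means median seed-adjusted z-score above 1 or below -1; inactive means the rest.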 The list shows a part of the results.

Assay: Novel Modifiers of Survival Motor Neuron (SMN) Protein: Gene Identification via Genome-wide siRNA Screen;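 further: luminescence tracks full-length SMN protein made from the SMN2 reporter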
Conditions: HEK293T SMN2-luciferase reporter, siRNA knockdown, 72 h; actives lie on both sides
Procedure, shortened: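 Luciferase signal, proportional to full-length SMN made from an SMN2 cDNA reporter in stable HEK293T cells, was read 72 h after siRNA reverse transfection. Values were expressed as MAD scores after non-targeting-control normalization and log10 conversion; seed analysis flagged off-targets.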

Sequence	median seed-adjusted z-score
GGGUCGAUACAUAUGCUCATT against DOCK9	inactive: 0.61
GUAAUUCCAGAUACGCUUATT against UGCG	inactive: 0.492
GAGAAGACGUGAAACAGUATT against GNAO1	inactive: 0.233
GAUUUAUCGCAAAAACUGATT against HS6ST1	inactive: -0.436
AGAGUGUGCCGGUCAUCAATT against HNF1A	inactive: -0.436
GGAGUACAGCAGUGAGCAATT against TRIB3	inactive: 0.00635
AGACCACAGUAUGCCGAAATT against MORF4	inactive: 0.0121
UCAUCAAUGCUACUGGUUATT against TM7SF2	inactive: -0.674
GGAUCAAUGGGACACCUUUTT against APCS	inactive: 0.0494
GGACUUUAAUCUUACCGAUTT against ITGA1	inactive: 0.0281
GAGACUGUGCAGAUGUAUATT against ANGPT1	inactive: 0.289
CUGUAGGAUUAAUUGCAAATT against SLC16A7	inactive: 0
CGAUCCUGAUUAUUCGUUUTT against ATE1	inactive: 0.569
GUGUCUUCUUAAUCCGUAUTT against ZXDB	inactive: 0.186
GCGCAGACAUUUUAGCCUATT against XPNPEP3	inactive: -0.282
AGCCUAUGAUUUUCCUGAATT against PTF1A	inactive: 0.482
GCUUCUCAUCGCUACUAUATT against MBD4	inactive: -0.107
CGAUCUCACAAGAAGCCUATT against TBCB	inactive: 0.69
AGUUCUGUCUGUUCACGAATT against OAS2	inactive: 0.0758
CUCUGUGAAUUUGAAAUCATT against SNED1	inactive: 0.148
CCAGAUUGAUCGACCAGCATT against RUVBL2	inactive: -0.0764
ACAUCGUCACUGAUCAGAATT against PTPRN	inactive: -0.272
GGAUCACGCAGCUCAAGAUTT against TBX1	inactive: -0.744
GGUCUACACCGGAUAUCGATT against PKD1L3	inactive: -0.658
CAGUGAGGUGAAACAAAUATT against DNAJC8	active: -1.62
CCAUGAACCGCACACCUGUTT against ACY1	inactive: -0.153
CAGAACCCAUAUUAACUAUTT against HADHA	inactive: 0.47

Part of the list above, comma-delimited.
Sequence,median seed-adjusted z-score
AGAGUGUGCCGGUCAUCAATT against HNF1A,inactive: -0.436
GGAUCAAUGGGACACCUUUTT against APCS,inactive: 0.0494
CGAUCUCACAAGAAGCCUATT against TBCB,inactive: 0.69

Continued:

Sequence	median seed-adjusted z-score
GCAUGCAGGUGGGCAAGAATT against APOB48R	inactive: 0.386
GCCCAGAUCUGCAUAGACATT against COL6A1	inactive: 0.509
GAAAGAUCAAGGACCGGUATT against LMO3	inactive: 0.496
AUGGAAUUUUAUAAGCUGATT against TSPO	inactive: -0.206
GGUUGCCUGUGGUAUAAGATT against NRD1	inactive: 0.0825
GUCAAGCACUGGUACCAAATT against OAS1	inactive: 0.442
ACAGUAUGCUGAAAUUCUUTT against MORF4L1	inactive: 0.225
UCCACUGACUCGUAAAGUUTT against PROK2	inactive: -0.00826
GGAUGAUGCCUUCAAUACUTT against RAB10	inactive: -0.319
CUACCUGAGUAUAAGGAUATT against INSL6	inactive: 0.777
GGCUAACAUUGACCUGGAATT against TNFRSF17	inactive: -0.0138
AGACAGGGCUGGUUAAACUTT against BRSK1	inactive: -0.0495
GCAGGUCAGUUCAAGUAGATT against SLC17A1	inactive: -0.271
GGUUGAAGCUUACUCCGGATT against DHX9	inactive: -0.687
CUACGAAUCUGUGAAUGAATT against ERH	active: -1.25
GCUUUGGACUGAGAUGGUUTT against PBLD	inactive: -0.0809
GCAGUGACAUAGCAUCUGATT against ATP8B3	inactive: 0
CAUUUAUGAGUGUAGUAAATT against ZNF674	inactive: 0.234
GCGUGUUACACGUUCCCAATT against MLLT4	inactive: -0.0762
GGCUUGUGGUUUAUCAUUUTT against MS4A8B	inactive: 0.207
GGAGUAGAUUUUAGCAUAATT against TNKS2	inactive: 0.0545
AGGUGAUGUUCGUCAACAATT against SLC14A2	inactive: 0.00107
UAAUGACCUUUGAAAAAGUTT against MBL2	inactive: -0.252
CUGGAAGACUACUACUGGATT against MAF	inactive: -0.418
CGCUCAAGUUCUUCCGCAATT against PDIA2	inactive: 0.151
UGAAGUUGCUGGACGCGUATT against DAD1	inactive: -0.45
